From US9090605B2, “Substituted 5-,6- and 7-membered heterocycles, medicaments containing such compounds, and their use” (Vitae Pharmaceuticals, Inc., priority 2010, dated 2015)

Amino acid sequences for entries named in this document (tags omitted). A change or cut given only in a name is not applied to a line headed by its entry.
UniProt P28845: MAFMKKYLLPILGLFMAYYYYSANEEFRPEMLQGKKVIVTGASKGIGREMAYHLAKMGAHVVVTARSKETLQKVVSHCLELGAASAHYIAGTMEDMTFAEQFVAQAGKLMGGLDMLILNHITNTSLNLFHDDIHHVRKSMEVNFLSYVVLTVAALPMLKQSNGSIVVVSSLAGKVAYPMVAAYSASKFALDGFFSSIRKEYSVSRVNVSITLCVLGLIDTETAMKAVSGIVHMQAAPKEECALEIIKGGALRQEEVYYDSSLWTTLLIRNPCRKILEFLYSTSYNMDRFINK

Target: 11β-HSD1 (Homo sapiens, UniProt P28845)
Assay: Inhibition of a microsomal preparation of 11β-HSD1, scintillation proximity assay, microsomes from CHO cells overexpressing human 11β-HSD1 (biological test example 2)
Assay type: biochemical
Design: expressed in transfected cells; host or cells: CHO cells (microsomes isolated from them)
Conditions: microsomes from CHO cells overexpressing human 11β-HSD1, SPA, [3H]cortisone, 90 minutes at room temperature; read-out: IC50, inhibitory activity on 11β-HSD 1
Procedure: All reactions were carried out at room temperature in 96 well clear flexible PET Microbeta plates (PerkinElmer). The assay begins by dispensing 49 μl of substrate solution [50 mM HEPES, pH 7.4, 100 mM KCl, 5 mM NaCl, 2 mM MgCl2, 2 mM NADPH and 160 nM [^3H]cortisone (1 Ci/mmol)] and mixing in 1 μL of the test compounds in dimethyl sulfoxide previously diluted in half-log increments (8 points) starting at 0.1 mM. After a 10 minute pre-incubation, 50 μL of enzyme solution containing microsomes isolated from CHO cells overexpressing human 11β-HSD1 (10-20 μg/ml of total protein) was added, and the plates were incubated for 90 minutes at room temperature. The reaction was stopped by adding 50 μl of the SPA beads suspension containing 10 μM 18β-glycyrrhetinic acid, 5 mg/ml protein A coated YSi SPA beads (GE Healthcare) and 3.3 μg/ml of anti-cortisol antibody (East Coast Biologics) in Superblock buffer (Bio-Rad). The plates were shaken for 120 minutes at room temperature, and the SPA signal corresponding to [^3H]cortisol was measured on a Microbeta plate reader.

IC50: 0.8 nM
SMILES: C[C@@H](c1ccc(-c2cnc(N3CC(F)(F)C3)nc2)cc1)N1CC[C@](CC(C)(C)O)(c2ccccc2)OC1=O [Example 33, 3-((S)-1-{4-[2-(3,3-difluoroazetidin-1-yl)pyrimidin-5-yl]phenyl}ethyl)-(S)-6-(2-hydroxy-2-methylpropyl)-6-phenyl-1,3-oxazinan-2-one]
